Results reported in PubChem BioAssay AID2417 (National Center for Advancing Translational Sciences (NCATS), 2010).
About 4,300 (3.1%) of roughly 140,000 compounds were called active. Inconclusive means that the source gave no clear call. Such entries were picked first, then a sample of the others.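 The calls were made as follows: active = readout at or below -70, meaning at least 70% loss of cells showing the perinucleolar compartment, a nuclear body marking cancer cells; inconclusive = readout between -30 and a set limit; inactive = the rest.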

Assay: High Content Assay for Compounds that inhibit the Assembly of the Perinucleolar Compartment;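 also: plate controls were DMSO wells for no effect and camptothecin positive control wells for full effect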
Settings: PC3M PTB-GFP, PNC prevalence imaging, 16 h; at 10 µM; stronger effect = lower value
Procedure, shortened: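 Compounds are pinned in duplicate onto adhered PC3M cells stably expressing GFP-tagged PTB and incubated 16 h at 37 C. Cells are then fixed, nuclei stained with Hoechst, and PNC-positive cells counted.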

| SMILES | activity change (PNC), negative = inhibition |
| --- | --- |
| CCOc1ccc(NC(=O)CSc2nc3[nH]ncc3c(=O)n2-c2ccccc2OC)cc1 | inactive: -11.2% |
| Cc1ccccc1NC(=O)C1CCCN(S(=O)(=O)c2c(C)noc2C)C1 (stereo not drawn) | inconclusive: -32.3% |
| O=C(N/N=C/c1ccncc1)c1ccc(-n2cccc2)cc1 | inconclusive: -37.2% |
| CNC(=O)c1[nH]cnc1C(=O)Nc1cccc(OC)c1 | inconclusive: -43.4% |
| O=C(COC(=O)[C@H](Cc1ccccc1)NC(=O)c1ccco1)NC(c1ccccc1)c1ccccc1 | inconclusive: -66.9% |
| CN(C)CCCOC(=O)c1ccccc1Cl | inconclusive: -36.4% |
| Cc1csc(NC(=O)CSc2nnc(-c3ccccc3)o2)n1 | inconclusive: -41.3% |
| Cc1ccc(-c2nnn(CC(=O)N(Cc3ccccc3)C(C(=O)NC3CCCC3)c3ccncc3)n2)o1 (stereo not drawn) | inconclusive: -30.9% |
| COc1cc(-c2nnc(CSc3nnc(N)s3)o2)cc(OC)c1OC | inconclusive: -59.1% |
| CC(C)c1ccccc1NC(=O)COC(=O)CNC(=O)c1ccc(Br)cc1 | inconclusive: -36.9% |
| CS(=O)(=O)N1CCCC(C(=O)NCCCN2CCC(Cc3ccccc3)CC2)C1 (stereo not drawn) | inconclusive: -62.5% |
| CC(C)c1ccc(NC(=S)NN(c2ccccc2)c2ccccc2)cc1 | active: -84.6% |
| COc1c(Cl)cnn(-c2ccc(C)cc2)c1=O | inactive: 0.0517% |
| Cc1cc(C)c(S(=O)(=O)c2ccccc2)c(OC(=O)c2c(F)cccc2Cl)n1 | inconclusive: -41.9% |
| COc1ccc(CCNC(=O)CN(c2ccc(OC)c(OC)c2)S(C)(=O)=O)cc1 | active: -139% |
| COc1ccc(C2SCCN2C(=S)Nc2ccc(F)cc2)cc1 (stereo not drawn) | inactive: 8.63% |
| CCC(CC)C(=O)NCCc1cc2ccc(C)cc2[nH]c1=O | inconclusive: -33.7% |
| CCCN1CCC(NC(=O)Nc2ccc(F)cc2F)CC1 | inconclusive: -41.1% |
| Cc1c(Cl)cccc1NC(=S)N1CCN(C(=O)C2CCCO2)CC1 (stereo not drawn) | inconclusive: -64.1% |
| CCCN(Cc1ccccc1)C(=O)Nc1ccc2c(c1)nnn2C | inconclusive: -57.9% |
| COc1ccc(-c2nc3n(n2)C(c2ccccc2)C2=C(CCCC2=O)N3)cc1OC (stereo not drawn) | inconclusive: -31.7% |
| O=C(Nc1ccc(O)c(-c2nc3ccccc3o2)c1)C1(c2ccc(Br)cc2)CCCC1 | inactive: 13.4% |
| O=C(CSc1ncnc2c1oc1ccccc12)NCc1ccco1 | inconclusive: -54.1% |
| COc1ccc(N=c2sc3ccccc3n2C)cc1 | inconclusive: -31.6% |

| SMILES | activity change (PNC), negative = inhibition |
| --- | --- |
| O=C(NC(=S)NCCSc1ccccc1)c1cccnc1 | active: -95.1% |
| NC(CC(=O)O)c1ccc(Br)cc1 (stereo not drawn) | inconclusive: -46.2% |
| CCOC(=O)C1=C(C)N(C)C(=O)NC1c1ccc(C)s1 (stereo not drawn) | inactive: -29.9% |
| Cc1ccc(-n2c(Cl)c(Cl)nc(Cl)c2=O)cc1 | inconclusive: -39.3% |
| O=C(CSc1nc2ccccc2n1-c1ccccc1)Nc1ncc(Cl)cc1Cl | active: -107% |
| CC(C)CNc1oc(-c2ccco2)nc1C#N | active: -100% |
| COC(=O)c1ccc(/C=N/NC(=O)c2ccccc2Cl)cc1 | inconclusive: -37.6% |
| CC(C)CCN1CC(C(=O)NC(C)C)CC1=O (stereo not drawn) | inconclusive: -51.5% |
| O=S(=O)(c1cccc(-c2nnco2)c1)N1CCCC1 | active: -107% |
| COc1cccc(-c2cc(C(=O)Nc3nc4ccccc4s3)c3ccccc3n2)c1 | active: -115% |
| CCOC(=O)c1c(NC(=O)Cn2nnc3ccccc32)sc2c1CCC(C)C2 (stereo not drawn) | inconclusive: -53.7% |
| CCOC(=O)c1ccc(S(=O)(=O)N2CCC(C(=O)O)CC2)cc1 | inconclusive: -53.3% |
| CC1(C)NC(=O)N(CC(O)CN(Cc2ccccc2)Cc2ccccc2)C1=O (stereo not drawn) | inconclusive: -33.2% |
| C=CCn1c2ccccc2c2nnc(SCc3ccc4nonc4c3)nc21 | inconclusive: -54.7% |
| CC1=NN(C(=O)Cc2ccccc2)C(O)(c2cccnc2)C1 (stereo not drawn) | inconclusive: -58.5% |
| O=C(NCc1ccccc1)c1cc(S(=O)(=O)N2CCOCC2)ccc1F | inconclusive: -38.8% |
| Cc1ccc(S(=O)(=O)Cc2ccc(C(=O)N3CCN(Cc4ccccc4)CC3)o2)cc1 | inconclusive: -34.2% |
| CCOc1ccc(-n2c(COc3ccccc3)nnc2SCC(N)=O)cc1 | inconclusive: -35.9% |
| CC(C)N(Cc1cc2ccccc2[nH]c1=O)C(=O)C(C)(C)C | inconclusive: -43.1% |
| O=C(Nc1ccc(N2CCCCC2)c(Cl)c1)c1ccc2c(c1)OCCO2 | inactive: 15.9% |
| COC(=O)Cn1ncn2c(cc3oc(C)cc32)c1=O | inconclusive: -38.7% |
| CC(C)Cn1c(CN2CCCCC2C)nc2c1c(=O)n(C)c(=O)n2C (stereo not drawn) | inconclusive: -38.4% |
| N#CCSc1nc2sc3c(c2c(=O)n1C1CCCCC1)CCCC3 | inconclusive: -49% |
| O=C(Nc1scc(-c2ccccc2)c1C(=O)O)c1ccco1 | inactive: 36.8% |

| SMILES | activity change (PNC), negative = inhibition |
| --- | --- |
| N/C(=N\OC(=O)c1cccc(Cl)c1)c1ccccn1 | inconclusive: -39.9% |
| COc1ccccc1CNC(=O)c1ccc2nc3[nH]c4ccccc4c3nc2c1 | inconclusive: -54% |
| CCn1c(=O)cc(OCC(=O)NCc2ccco2)c2ccccc21 | inconclusive: -36.4% |
| Cc1c(C(=O)N2CCOCC2)oc2c1C(=O)CC(C)(C)C2 | inconclusive: -32.8% |
| N#Cc1cccc(CSc2nnc(CCCO)n2-c2ccccc2)c1 | inconclusive: -38% |
| Cc1cc(C)cc(N(C(=O)c2csnn2)C(C(=O)NC(C)(C)C)c2cccs2)c1 (stereo not drawn) | inconclusive: -35.3% |
| CN(c1cccc(NC(=O)COc2ccccc2)c1)S(C)(=O)=O | active: -111% |
| COc1ccc(C(=O)Oc2cc(/C=N/NS(=O)(=O)c3ccccc3)ccc2OC)cc1 | inactive: -14.7% |
| CCOc1ccc(NC(=O)Nc2cc(C)ccc2F)cc1 | inconclusive: -62% |
| Cc1cccc2c(C(=O)O)c3c(nc12)CCCCC3 | inconclusive: -42.2% |
| c1cc(CNc2ccc3c(c2)OCCO3)ccn1 | inconclusive: -64.2% |
| O=C(CNCc1ccccc1)Nc1ccccc1-c1ccccc1 | inconclusive: -32.5% |
| N#C/C(=C/c1ccccc1[N+](=O)[O-])c1nnc2n1CCCCC2 | inconclusive: -78.5% |
| O=C(Nc1ccon1)c1ccc(Br)o1 | inconclusive: -35.7% |
| CCOC1=NC(C(=O)O)c2ccccc2/C(=C(/C)Cl)N1 (stereo not drawn) | inactive: -7.73% |
| COc1cc(NC(=S)NC2CC2)c(OC)cc1Cl | inconclusive: -30.4% |
| COc1c(C)cccc1C(=O)Nc1ccc(CN2CCCCC2)cc1 | inconclusive: -34.9% |
| Cc1nn(-c2cc(N3CCNCC3)ccc2[N+](=O)[O-])c(=O)c2ccccc12 | active: -97% |
| Cn1cc([N+](=O)[O-])c(C(=O)Nc2cc(Oc3cccnc3)cc([N+](=O)[O-])c2)n1 | inconclusive: -43.2% |
| COc1ccc(OC)c(S(=O)(=O)Nc2ccc(C(C)=O)cc2)c1 | inactive: -7% |
| CCOc1ccc(NC(=O)C2CC(=O)N(C)C(=Nc3ccc4c(c3)OCO4)S2)cc1 (stereo not drawn) | inconclusive: -45.9% |
| O=C(CSc1nc(Cc2ccccc2)nc2ccccc12)Nc1nc2c(s1)CCCC2 | inconclusive: -52.7% |
| S=C1NC(c2ccccc2)=NCN1c1ccc(Cl)cc1 | inconclusive: -31.1% |
| COc1ccc(/C=C2\SC(=O)N(CCNC(=O)Cc3coc4cc(OC)ccc34)C2=O)cc1 | inactive: 21.6% |

Already shown: entries from further up.

| SMILES | activity change (PNC), negative = inhibition |
| --- | --- |
| COc1ccccc1CNC(=O)c1ccc2nc3[nH]c4ccccc4c3nc2c1 | inconclusive: -54% |
| CCn1c(=O)cc(OCC(=O)NCc2ccco2)c2ccccc21 | inconclusive: -36.4% |
| Cc1c(C(=O)N2CCOCC2)oc2c1C(=O)CC(C)(C)C2 | inconclusive: -32.8% |
| N#Cc1cccc(CSc2nnc(CCCO)n2-c2ccccc2)c1 | inconclusive: -38% |

Following part

| SMILES | activity change (PNC), negative = inhibition |
| --- | --- |
| COC(=O)CCC(=O)Nc1sc(C)c(C)c1C(N)=O | inactive: 14.4% |
| COc1ccc(C(NC(N)=O)c2ccccc2)cc1 (stereo not drawn) | inconclusive: -46.1% |
| CCOC(=O)CC(=O)CSc1nnc2c(n1)[nH]c1ccccc12 | inconclusive: -35.1% |
| COc1ccc(C(C(=O)NC2CCCCC2)N(C(=O)c2sc(C)nc2C)c2ccccc2)cc1 (stereo not drawn) | inconclusive: -40.5% |
| CCOc1cc(C(=O)NCc2ccc(-c3nc4ccccc4o3)cc2)cc(OCC)c1OCC | inconclusive: -31.9% |
| Cc1ccc(OCC(=O)N2CC3(C)CC2CC(C)(C)C3)cc1 (stereo not drawn) | active: -100% |
| O=C(CSc1nnc(-c2ccc(Cl)s2)o1)N1CCOCC1 | inconclusive: -41.4% |
| CC(=O)N(Cc1cc(=O)[nH]c2ccccc12)c1ccccc1 | inactive: 23.8% |
| COc1cccc(C(=O)COc2ccccc2-c2ccccc2)c1 | inconclusive: -30.3% |
| O=C(NCCc1cccc(Cl)c1)c1ccc(Cl)c([N+](=O)[O-])c1 | inconclusive: -38.3% |
| Nc1ccc(C(=O)Nc2ccco2)cc1 | active: -100% |
| CN(C)C1C(=O)c2ccccc2C1=O | inconclusive: -59.7% |
| CC(=O)Nc1cccc(Oc2ncnc3scc(-c4ccc(C(C)C)cc4)c23)c1 | inconclusive: -53.9% |
| Cc1c(NCc2cc(Cl)ccc2O)c(=O)n(-c2ccccc2)n1C | inconclusive: -44.1% |
| CCC(Sc1nnnn1C)C(=O)Nc1ccc(C(C)=O)cc1 (stereo not drawn) | active: -86.8% |
| CCOc1ccc2nc(-c3ccccc3)nc(SCC(=O)Nc3ncc(C)s3)c2c1 | inactive: 46.9% |
| COC(=O)c1ccccc1NC(=O)C1CC(c2ccc(F)cc2)=NO1 (stereo not drawn) | inconclusive: -33% |
| CCCCN(C)Cc1c(C)[nH]c2ccc(Cl)cc2c1=O | inconclusive: -34% |
| CCCCOCCCNC(=O)c1ccc(OCC)cc1 | inactive: -17.5% |
| COc1ccc(-c2nnc(Nc3ccc(CC(N)=O)cc3)c3ccccc23)cc1 | inconclusive: -33.4% |
| O=C(CC(O)(c1ccccc1)C(F)(F)F)c1cccs1 (stereo not drawn) | inactive: 13.4% |
